Measurements published in PubChem BioAssay AID743255 (National Center for Advancing Translational Sciences (NCATS), 2014).
The campaign covered roughly 390,000 compounds. About 910 (0.23%) were called active. Calls come from the whole dose curve; as a rule, active = well fitted inhibition curve with a large enough effect; inconclusive = small, poorly fitted or top-dose-only effect; inactive = no such curve, though single readings can be large or run the other way. The inconclusive results got no clear call from the source. A potency beside an inconclusive call is a rough fit, not a confirmed value.

Sequences of proteins named here, by UniProt entry; tags and fusion partners are left off. A change or cut given only in a name is not applied to a line headed by its entry.
UniProt O94782: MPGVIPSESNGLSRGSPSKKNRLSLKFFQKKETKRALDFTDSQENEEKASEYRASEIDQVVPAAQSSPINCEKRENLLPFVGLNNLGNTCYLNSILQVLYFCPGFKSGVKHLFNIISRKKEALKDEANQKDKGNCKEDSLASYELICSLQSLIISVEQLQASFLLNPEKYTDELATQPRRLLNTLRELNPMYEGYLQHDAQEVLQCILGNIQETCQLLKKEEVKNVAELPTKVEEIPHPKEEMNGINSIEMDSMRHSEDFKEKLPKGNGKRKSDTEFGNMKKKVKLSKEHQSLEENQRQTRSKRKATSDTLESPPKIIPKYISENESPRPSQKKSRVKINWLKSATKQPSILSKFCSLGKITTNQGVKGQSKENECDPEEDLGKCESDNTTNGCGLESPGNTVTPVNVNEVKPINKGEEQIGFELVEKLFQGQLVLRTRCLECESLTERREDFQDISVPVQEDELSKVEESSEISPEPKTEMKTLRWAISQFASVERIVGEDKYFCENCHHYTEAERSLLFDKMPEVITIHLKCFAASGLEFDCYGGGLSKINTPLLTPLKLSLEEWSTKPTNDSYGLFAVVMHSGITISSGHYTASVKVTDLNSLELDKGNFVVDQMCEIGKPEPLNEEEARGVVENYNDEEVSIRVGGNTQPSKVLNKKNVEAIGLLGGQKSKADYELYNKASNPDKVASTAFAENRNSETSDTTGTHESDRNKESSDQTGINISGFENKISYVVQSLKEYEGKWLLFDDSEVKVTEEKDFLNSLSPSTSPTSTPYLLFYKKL

molecular target: Ubiquitin carboxyl-terminal hydrolase 1 (Homo sapiens) (UniProt O94782); experiment: Inhibitors of USP1/UAF1: Primary Screen; settings: recombinant USP1/UAF1, Ub-Rhodamine cleavage fluorescence; series mostly up to 57.1 µM; note: nearly all actives have a fitted effect of over 60% in size
Source text: Deubiquitinating enzymes (DUBs) are a class of enzymes that can cleave isopeptide bond formed between the C-terminal carboxylate of ubiquitin and a lysine side-chain amino group on the target protein. Among them, ubiquitin specific proteases (USPs) constitute the largest DUB family. Human USPs are emerging as promising targets for pharmacological intervention because of their connection to a number of human diseases, including prostate, colon and breast cancer (1, 2), pediatric acute lymphoblastic leukemia (3), and familial cylindromatosis (4). The advantage of inhibiting USPs lies in the potential specificity of therapeutic intervention that can lead to better efficacy and reduce nonspecific side effects. In a collaboration between the University of Delaware and the NIH Chemical Genomics Center, a high-throughput screen assay was developed to screen for USP1/UAF1 inhibitors. This miniaturized assay has a fluorescent read-out and is used to screen the NIH Molecular Libraries Small Molecule Repository (MLSMR) in order to identify a small molecule that inhibits USP1. NIH Chemical Genomics Center [NCGC] NIH Molecular Libraries Probe Centers Network [MLPCN] MLPCN Grant: DA030552 Assay Submitter (PI): Zhihao Zhuang, University of Delaware 1. Priolo, C., et al. (2006) The isopeptidase USP2a protects human prostate cancer from apoptosis. Cancer Res 66, 8625-8632 2. Popov, N., et al. (2007) The ubiquitin-specific protease USP28 is required for MYC stability. Nat Cell Biol 9, 765-774 3. De Pitta, C., et al. (2005) A leukemia-enriched cDNA microarray platform identifies new transcripts with relevance to the biology of pediatric acute lymphoblastic leukemia. Haematologica 90, 890-898 4. Kovalenko, A., et al. (2003) The tumour suppressor CYLD negatively regulates NF-kappaB signalling by deubiquitination. Nature 424, 801-805
3 microliters of reagents (buffer in columns 3 and 4 as negative control and 1nM USP1/UAF1 complex in columns 1, 2, and 5-48) are dispensed into Greiner black solid bottom 1536-well assay plates. Compounds are then transferred via Kalypsys pin tool equipped with 1536-pin array (10nl slotted pins, V&P Scientific, San Diego, CA). Following an incubation step of 15 min at room temperature, 1ul of Ub-Rho substrate (150nM final concentration) is added to initiate the reaction. The plates are immediately centrifuged at 1000 rpm for 15 seconds, and subsequently transferred to a ViewLux high-throughput CCD imager (PerkinElmer) wherein kinetic measurements of fluorescence are acquired using 480 nm excitation/540 nm emission filter set (6 reads every 60 seconds, see Table 1). All reagents are diluted in an assay buffer consisting of 50mM HEPES (pH 7.8), 0.5mM EDTA, 0.1 mg/ml BSA, 1mM TCEP, and 0.01% Tween-20.
Potency is the fitted concentration of half-maximal effect.

Row | SMILES | Potency
1 | CC(c1ccccc1)N1C(=O)c2ccc(C(=O)Nc3ccc(Br)cc3C(=O)O)cc2C1=O (centres undefined) | inconclusive: 44.7 µM [inhibitor, partial curve, poor fit]
2 | Cc1ccc(S(=O)(=O)Oc2ccc(/C=C3/C(=N)N4C(=NC3=O)SN=C4S(C)(=O)=O)cc2)cc1 | inconclusive: 35.5 µM [inhibitor, partial curve]
3 | O=C(O)c1cc(NC(=O)c2ccc(Br)cc2)cc(NC(=O)c2ccc(Br)cc2)c1 | inconclusive: 44.7 µM [inhibitor, partial curve, poor fit]
4 | CS(=O)(=O)C1=NSC2=NC(=O)/C(=C\c3ccc(OC(=O)c4ccco4)c(Br)c3)C(=N)N21 | inconclusive: 50.1 µM [inhibitor, partial curve, poor fit]
5 | CCCOc1ccc(C2C(C(=O)c3cc4ccccc4o3)=C(O)C(=O)N2c2cc(C)on2)cc1 (centres undefined) | inconclusive: 50.1 µM [inhibitor, partial curve, poor fit]
6 | Cc1c(CC(=O)O)c(=O)oc2c(C)c3occ(-c4ccc(Br)cc4)c3cc12 | inconclusive: 39.8 µM [inhibitor, partial curve, poor fit]
7 | Cc1cc(N2C(=O)C(O)=C(C(=O)c3cc4ccccc4o3)C2c2ccc(Cl)cc2)no1 (centres undefined) | inconclusive: 44.7 µM [inhibitor, partial curve]
8 | O=C(COc1ccc(Cl)cc1)Nc1cc(NC(=O)COc2ccc(Cl)cc2)cc(C(=O)O)c1 | inconclusive: 70.8 µM [inhibitor, partial curve, poor fit]
9 | CCOC(=O)c1sc(N2C(=O)C(O)=C(C(=O)c3ccc(C)o3)C2c2cccc([N+](=O)[O-])c2)nc1C (centres undefined) | inconclusive: 39.8 µM [inhibitor, partial curve]
10 | O=C(NN1C(=O)/C(=C/c2ccc(O)cc2)SC1=S)c1ccccc1O | inconclusive: 31.6 µM [inhibitor, partial curve]
11 | O=C1NN(c2ccc(F)c(Cl)c2)C(=O)/C1=C\c1cccc(OC(=O)c2cccs2)c1 | inconclusive: 31.6 µM [inhibitor, partial curve]
12 | CCOC(=O)C1=C(C)N=c2s/c(=C\c3ccc(OCC(=O)O)c(OC)c3)c(=O)n2C1c1ccc(OC)cc1 (centres undefined) | inconclusive: 44.7 µM [inhibitor, partial curve, poor fit]
13 | Cc1cc(N2C(=O)C(O)=C(C(=O)c3cc4ccccc4o3)C2c2cccc(Br)c2)no1 (centres undefined) | inconclusive: 39.8 µM [inhibitor, partial curve]
14 | COc1cc(/C=C2/C(=O)NN(c3ccc(Cl)cc3)C2=O)cc(Br)c1O | inconclusive: 25.1 µM [inhibitor, partial curve]

2 of the compounds above, with each value named.
CCCOc1ccc(C2C(C(=O)c3cc4ccccc4o3)=C(O)C(=O)N2c2cc(C)on2)cc1 (centres undefined)
  Potency: inconclusive: 50.1 µM [inhibitor, partial curve, poor fit]
Cc1c(CC(=O)O)c(=O)oc2c(C)c3occ(-c4ccc(Br)cc4)c3cc12
  Potency: inconclusive: 39.8 µM [inhibitor, partial curve, poor fit]
